Test results published in US20260193317A1, “COMBINATION THERAPY WITH ACTRIIB RECEPTOR VARIANTS AND GLP-1 AGONISTS” (35PHARMA Inc., priority 2023, published 2026).
Some of these results come from one statement about several compounds together.

Test system: follicle-stimulating hormone (FSH)
Assay: Circulating FSH levels in CD-1 mice
Type: in vivo
Conditions: single s.c. injection, P1229 50 mg/kg, semaglutide 2 mg/kg
Experimental: Finally, circulating FSH levels were assessed throughout the study (FIG. 20D). […] This confirms that the expected pharmacodynamic effect of P1229 was not altered in the context of the co-formulation.

Substance: P1229: hActRIIB L33W, 14 aa linker, IgG1-DL Fc; SEQ ID 211
- decrease of circulating FSH levels: > 85%
